Structures can show the parent of a compound that is named as a salt. The list shows a part of the results. Repeats in this data set agree poorly, so a single value says little.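 The cells are human U-2 OS cells that stably carry a GFP sensor with a nuclear import signal and a classical export signal. They were transfected to make PR50, a 50-repeat proline–arginine dipeptide protein from the ALS/FTD gene C9ORF72. Each well's nuclear-minus-cytoplasm GFP signal was scaled from in-plate DMSO (low) to PR-only wells (high), then scored against the other test wells on the plate; compounds scoring well below zero were called hits that reverse the PR effect.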
tested on: U-2 OS NCT-C biosensor cells expressing PR50; experiment: Z-score of normalised NCT-C biosensor translocation index in PR50-expressing cells; higher = more nuclear biosensor (more disrupted nuclear export); details: 3 µM; 24 h

For CC1CCN(CC[C@H]2CCCN2S(=O)(=O)c2cccc(O)c2)CC1, which Z-score is on record?
The Z-score was inactive: -0.48.

With CCOc1nc2cccc(C(=O)O)c2n1Cc1ccc(-c2ccccc2-c2nnn[nH]2)cc1 [Candesartan] as the compound, how does the Z-score read?
The Z-score was inactive: 0.517.

Which Z-score does the source give for C[C@@](Cc1ccc(O)c(O)c1)(NN)C(=O)O [S(-)-Carbidopa . monohydrate] here?
Its Z-score is inactive: 0.519.

NC(=O)[C@@H]1CSSCCC(=O)N[C@@H](CCCCN=C(N)N)C(=O)NCC(=O)N[C@@H](CC(=O)O)C(=O)N[C@@H](Cc2c[nH]c3ccccc23)C(=O)N2CCC[C@H]2C(=O)N1 [Eptifibatide acetate] was tested. Which Z-score did it give?
Its Z-score is inactive: 0.0908.

For NC[C@@H]1O[C@H](C23CC4CC(CC(C4)C2)C3)Cc2c1ccc(O)c2O, which Z-score is on record?
The Z-score was inactive: 0.486.

How did the Z-score turn out when COc1ccc([C@@H]2CC(=O)c3c(O)cc(OC4O[C@H](CO[C@H]5O[C@@H](C)[C@@H](O)[C@@H](O)[C@H]5O)[C@H](O)[C@H](O)[C@H]4O)cc3O2)cc1O (stereo not given in full) [Hesperidine] was run?
Its Z-score is inactive: -0.783.

With Cl.N[C@@H](CCC(=O)O)C(=O)O [L-Glutamic acid hydrochloride] as the compound, how does the Z-score read?
Its Z-score is inactive: -0.596.

With Clc1ccc2c(c1)CCc1cccnc1C2=C1CCNCC1 [Desloratadine] as the compound, how does the Z-score read?
The Z-score was inactive: 0.249.

How did the Z-score turn out when O=C1NCC2(CCN(CCc3ccccc3)CC2)O1 [Fenspiride hydrochloride] was run?
Its Z-score is inactive: 0.0203.

Which Z-score does the source give for Cc1cc(C)c(S(=O)(=O)N(CCc2cccc(Br)c2)Cc2ccc(-c3cccc(S(C)(=O)=O)c3)cc2)c(C)c1 here?
Its Z-score is inactive: -0.424.

For CSC(=N)N [S-Methyl isothiourea hemisulfate], which Z-score is on record?
Its Z-score is inactive: -0.544.

How did the Z-score turn out when CN(C)CCOC(c1ccccc1)c1ccccc1.Cn1c(=O)c2[nH]c(Cl)nc2n(C)c1=O [Dimenhydrinate] was run?
Its Z-score is inactive: -0.291.

How did the Z-score turn out when O=C(CCCCCN1CCN(c2ccccc2-c2ccccc2)CC1)NC1CCCc2ccccc21 (stereo not given) [LP 12  hydrochloride hydrate] was run?
Its Z-score is inactive: -0.622.

Which Z-score does the source give for O=C1NC(=O)c2cc(Nc3ccccc3)c(Nc3ccccc3)cc21 here?
The Z-score was inactive: 4.07.

How did the Z-score turn out when Cc1[nH]cnc1CN1CCc2c(c3ccccc3n2C)C1=O [Alosetron·HCl] was run?
The Z-score was inactive: -0.162.

How did the Z-score turn out when O=C(O)CCc1ccc(NCc2cccc(Oc3ccccc3)c2)cc1 was run?
The Z-score was inactive: -0.415.

With CCN(CC)C(=O)c1ccc(O)c(OC)c1 [Vanillic acid diethylamide] as the compound, how does the Z-score read?
The Z-score was inactive: -0.132.

NC1(C(=O)O)CC1 [1-  Aminocyclopropanec arboxylic acid Hydrochloride] was tested. Which Z-score did it give?
The Z-score was inactive: -0.266.

C[C@H]1[C@H](C)CC[C@]2(C(=O)O)CC[C@]3(C)C(=CC[C@@H]4[C@@]5(C)CC[C@H](O)C(C)(C)[C@@H]5CC[C@]43C)[C@H]12 [Ursolic acid] was tested. Which Z-score did it give?
Its Z-score is inactive: -0.537.

With O=C(c1ccc(F)cc1)C1CCN(CCn2c(=O)[nH]c3ccccc3c2=O)CC1 [Ketanserin tartrate] as the compound, how does the Z-score read?
Its Z-score is inactive: -0.703.

Which Z-score does the source give for COc1cccc2c(NCc3ccccc3)nc(-n3c(N)nc4ccccc43)nc12 here?
The Z-score was inactive: -0.437.

CC=CC(=O)N(CC)c1ccccc1C [Crotamiton] was tested. Which Z-score did it give?
The Z-score was inactive: 0.163.

With NCCCCCC(=O)O [Aminocaproic Acid] as the compound, how does the Z-score read?
The Z-score was inactive: 0.11.

CN(C)C(=N)NC(=N)N [Metformin·HCl] was tested. Which Z-score did it give?
Its Z-score is inactive: -1.66.

Nc1nc2c(ncn2COC(CO)CO)c(=O)[nH]1 [Ganciclovir] was tested. Which Z-score did it give?
Its Z-score is inactive: -0.119.

For CO[C@H]1/C=C/O[C@@]2(C)Oc3c(C)c(O)c4c(O)c(c5c(nc6cc(C)ccn65)c4c3C2=O)NC(=O)/C(C)=C\C=C\[C@H](C)[C@H](O)[C@@H](C)[C@@H](O)[C@@H](C)[C@H](OC(C)=O)[C@@H]1C [Rifaximin], which Z-score is on record?
The Z-score was inactive: -0.391.

For CN1CCN(C2Cc3ccccc3Sc3ccc(Cl)cc32)CC1 (racemic) [(±)-Octoclothepin maleate], which Z-score is on record?
The Z-score was inactive: 0.258.

Clc1cccc(Cl)c1NC1=NCCN1 [Clonidine hydrochloride] was tested. Which Z-score did it give?
The Z-score was inactive: -0.724.

Clc1cccc(Cl)c1NC1=NCCN1 [Clonidine·HCl] was tested. Which Z-score did it give?
Its Z-score is inactive: 0.698.

With C[C@]12C=CC(=O)N[C@@H]1CC[C@@H]1[C@@H]2CC[C@]2(C)[C@@H](C(=O)Nc3cc(C(F)(F)F)ccc3C(F)(F)F)CC[C@@H]12 [Dutasteride] as the compound, how does the Z-score read?
The Z-score was inactive: -0.0064.

With N=C(N)NCCCCNC(=N)N [Arcaine sulfate] as the compound, how does the Z-score read?
Its Z-score is inactive: -0.0313.

Which Z-score does the source give for CCCNC(=O)NS(=O)(=O)c1ccc(Cl)cc1 [Chlorpropamide] here?
The Z-score was inactive: 2.32.

How did the Z-score turn out when CCN(CC)C(C)CN1c2ccccc2Sc2ccccc21 (stereo not given) [Ethopropazine hydrochloride] was run?
The Z-score was inactive: 0.278.

Cc1cnc(Nc2ccc(OCCN3CCCC3)cc2)nc1Nc1cccc(S(=O)(=O)NC(C)(C)C)c1 was tested. Which Z-score did it give?
Its Z-score is inactive: -0.934.

How did the Z-score turn out when CN(C)CCCN1c2ccccc2Sc2ccc(Cl)cc21 [Chlorpromazine hydrochloride] was run?
The Z-score was inactive: 0.248.

For CN(C)CCCN1c2ccccc2Sc2ccc(Cl)cc21 [Chlorpromazine·HCl], which Z-score is on record?
The Z-score was inactive: 1.62.

With O=C(OC12CC3CC(CC(C3)C1)C2)c1ccc(NCc2cc(O)ccc2O)cc1 [Adaphostin] as the compound, how does the Z-score read?
The Z-score was inactive: 1.35.

For COc1cc([C@@H]2c3cc4c(cc3[C@@H](O[C@@H]3O[C@@H]5CO[C@@H](c6cccs6)O[C@H]5[C@H](O)[C@H]3O)[C@H]3COC(=O)[C@H]23)OCO4)cc(OC)c1O [Teniposide], which Z-score is on record?
The Z-score was inactive: -0.955.

Which Z-score does the source give for CC1(C)C2CCC1(C(=O)O)C(=O)C2 (stereo not given) [Ketopinic acid] here?
The Z-score was inactive: -0.628.

Which Z-score does the source give for CCCCOc1cc(CC2CNC(=O)N2)ccc1OC (stereo not given) here?
The Z-score was inactive: 3.73.

How did the Z-score turn out when CC(C)Cn1c(=O)n(C)c(=O)c2[nH]cnc21 [3-Isobutyl-1- methylxanthine] was run?
The Z-score was inactive: 0.341.

Which Z-score does the source give for Clc1cccc(Cl)c1CSc1nnc(-c2cnccn2)s1 here?
Its Z-score is inactive: -0.0792.

With CC(=O)N[C@H](C(=O)N[C@@H](CC(=O)O)C(=O)N[C@@H](CCCN=C(N)CF)C(N)=O)[C@@H](C)O [TDFA  trifluoroacetate salt] as the compound, how does the Z-score read?
The Z-score was inactive: -0.301.

C=C(C)[C@@H](CC=C(C)C)C[C@@]12C[C@@H](CC=C(C)C)C(C)(C)[C@@](CC=C(C)C)(C(=O)C(C(=O)c3ccc(O)c(O)c3)=C1O)C2=O [Garcinol] was tested. Which Z-score did it give?
Its Z-score is inactive: -1.04.

Which Z-score does the source give for Nc1ncnc2c1ncn2C1CCCO1 (stereo not given) here?
The Z-score was inactive: -0.216.

For Nc1ccn([C@@H]2O[C@H](CO)[C@@H](O)[C@@H]2O)c(=O)n1 [Cytosine-1-beta-D- arabinofuranoside hydrochloride], which Z-score is on record?
Its Z-score is inactive: -0.363.

How did the Z-score turn out when Nc1ccn([C@@H]2O[C@H](CO)[C@@H](O)[C@@H]2O)c(=O)n1 [Cytarabine] was run?
Its Z-score is inactive: 0.526.

How did the Z-score turn out when COc1ccnc(C[S+]([O-])c2nc3cc(OC(F)F)ccc3[nH]2)c1OC (stereo not given) [Pantoprazole] was run?
The Z-score was inactive: -0.0167.

For N[C@@H](Cc1ccc(O)c(I)c1)C(=O)O [3-Iodo-L-tyrosine], which Z-score is on record?
Its Z-score is inactive: 0.355.

With C[C@H]1O[C@@H](Oc2c(-c3cc(O)c(O)c(O)c3)oc3cc(O)cc(O)c3c2=O)[C@@H](O)[C@@H](O)[C@@H]1O [Myricitrin] as the compound, how does the Z-score read?
The Z-score was inactive: -0.426.

CC[C@@H](C(=O)[C@@H](C)[C@@H](O)[C@H](C)CCc1ccc(C)c(O)c1C(=O)O)[C@H]1O[C@](CC)([C@H]2CC[C@](O)(CC)[C@H](C)O2)C[C@@H]1C [Lasalocid A] was tested. Which Z-score did it give?
Its Z-score is inactive: 0.276.

Which Z-score does the source give for C=C1C(=O)O[C@@H](CCC)[C@@H]1C(=O)O [Butyrolactone 3] here?
Its Z-score is inactive: 2.78.

CCCCN1CCCCC1C(=O)Nc1c(C)cccc1C (stereo not given) [Bupivacaine·HCl] was tested. Which Z-score did it give?
Its Z-score is inactive: -0.309.

With Cc1nc(Nc2ncc(C(=O)Nc3c(C)cccc3Cl)s2)cc(N2CCN(CCO)CC2)n1 [Dasatinib] as the compound, how does the Z-score read?
Its Z-score is inactive: 0.0962.

Which Z-score does the source give for CCN(CCO)CCCC(C)Nc1ccnc2cc(Cl)ccc12 (stereo not given) [Hydroxychloroquine Sulfate] here?
The Z-score was inactive: 0.379.

With CCOC(=O)c1c(CSc2ccccc2)n(C)c2cc(Br)c(O)c(CN(C)C)c12 [Arbidol hydrochloride] as the compound, how does the Z-score read?
Its Z-score is inactive: 0.000953.

For COc1ccc(CC2c3cc(OC)c(OC)cc3CC[N+]2(C)CCC(=O)OCCCCCOC(=O)CC[N+]2(C)CCc3cc(OC)c(OC)cc3C2Cc2ccc(OC)c(OC)c2)cc1OC (stereo not given) [Atracurium Besylate], which Z-score is on record?
The Z-score was inactive: 0.214.

How did the Z-score turn out when Cc1nc(-c2ccc(OCC(C)C)c(C#N)c2)sc1C(=O)O [Febuxostat] was run?
The Z-score was inactive: 1.46.

CN(C)[C@@H]1C(O)=C(C(N)=O)C(=O)[C@@]2(O)C(O)=C3C(=O)c4c(O)cccc4[C@@](C)(O)[C@H]3[C@H](O)[C@@H]12 [Oxytetracycline·HCl] was tested. Which Z-score did it give?
Its Z-score is inactive: -0.321.

With Nc1ccc(CCNc2ncnc3c2ncn3C2OC(CO)C(O)C2O)cc1 (stereo not given) [N6-2-(4-  Aminophenyl)ethylad enosine] as the compound, how does the Z-score read?
Its Z-score is inactive: 0.539.

Which Z-score does the source give for Oc1ccc2c(c1)CC[C@H](c1ccccc1)[C@@H]2c1ccc(OCCN2CCCC2)cc1 [Lasofoxifene tartrate] here?
The Z-score was inactive: -0.781.

With NC(N)=Nc1nc(CSCC/C(N)=N/S(N)(=O)=O)cs1 [Famotidine] as the compound, how does the Z-score read?
The Z-score was inactive: 1.47.

For CC1=C(/C=C/C(C)=C/C=C/C(C)=C\C(=O)O)C(C)(C)CCC1 [13-cis-Retinoic acid], which Z-score is on record?
Its Z-score is inactive: -0.843.

With CC1=C(/C=C/C(C)=C/C=C/C(C)=C\C(=O)O)C(C)(C)CCC1 [13-cis-retinoic acid] as the compound, how does the Z-score read?
The Z-score was inactive: -1.11.

CC1=C(/C=C/C(C)=C/C=C/C(C)=C\C(=O)O)C(C)(C)CCC1 [Isotretinoin (13-Cis-Retinoic Acid)] was tested. Which Z-score did it give?
The Z-score was inactive: 0.885.

— the supplement of paper PMC8616043
